Compound in the assay: COC(=O)/C=C/c1ccccc1 [methyl cinnamate]
Nature of the assay: log2 ratio of iodoacetamide-alkyne labeling of the cysteine site, DMSO over compound (competition); higher = stronger covalent engagement of the cysteine by the compound, active = 1 or more. To be noted: 500 µM; treatment time 1 h; system: HEK293T cell lysate. Put shortly: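 HEK293T lysate at 2 mg/mL was treated with vehicle or electrophile (500 µM) for 1 h at ambient temperature, then labelled with iodoacetamide alkyne (1 h), clicked to sCIP-TMT reagents, pooled, digested with trypsin overnight at 37 °C, enriched on streptavidin and eluted with acid. Peptides were analysed by Orbitrap Eclipse LC-MS/MS with FAIMS and quantified in FragPipe, using duplicate channels and three replicates, with cysteines quantified in only one replicate excluded. The log2 competition ratio for each cysteine is the mean control-channel reporter intensity divided by the mean compound-channel reporter intensity.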

By UniProt entry, the sequences of proteins in these tests, tags left out. Where a name states a change or a piece, a line headed by the entry shows the natural chain unless it says otherwise.
UniProt O76003: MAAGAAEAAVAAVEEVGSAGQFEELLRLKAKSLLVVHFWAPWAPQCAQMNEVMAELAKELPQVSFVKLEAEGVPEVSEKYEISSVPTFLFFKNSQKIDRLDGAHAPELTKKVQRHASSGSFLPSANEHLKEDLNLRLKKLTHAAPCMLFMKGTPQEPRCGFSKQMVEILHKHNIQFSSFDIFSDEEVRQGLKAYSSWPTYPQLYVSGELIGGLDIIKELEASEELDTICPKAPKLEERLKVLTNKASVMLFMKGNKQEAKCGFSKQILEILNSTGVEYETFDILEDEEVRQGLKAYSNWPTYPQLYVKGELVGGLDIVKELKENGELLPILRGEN
UniProt O60493, whole entry: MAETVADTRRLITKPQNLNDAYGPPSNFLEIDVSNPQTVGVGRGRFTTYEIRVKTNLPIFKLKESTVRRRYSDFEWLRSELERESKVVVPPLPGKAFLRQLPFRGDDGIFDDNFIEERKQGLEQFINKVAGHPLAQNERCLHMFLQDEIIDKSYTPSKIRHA
UniProt O75935, whole entry, looked up: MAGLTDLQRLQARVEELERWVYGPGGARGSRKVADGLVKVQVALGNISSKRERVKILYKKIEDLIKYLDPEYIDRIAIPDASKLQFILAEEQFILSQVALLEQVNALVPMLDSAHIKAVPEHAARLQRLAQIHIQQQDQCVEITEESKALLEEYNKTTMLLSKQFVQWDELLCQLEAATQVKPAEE
UniProt O43491, whole entry, looked up: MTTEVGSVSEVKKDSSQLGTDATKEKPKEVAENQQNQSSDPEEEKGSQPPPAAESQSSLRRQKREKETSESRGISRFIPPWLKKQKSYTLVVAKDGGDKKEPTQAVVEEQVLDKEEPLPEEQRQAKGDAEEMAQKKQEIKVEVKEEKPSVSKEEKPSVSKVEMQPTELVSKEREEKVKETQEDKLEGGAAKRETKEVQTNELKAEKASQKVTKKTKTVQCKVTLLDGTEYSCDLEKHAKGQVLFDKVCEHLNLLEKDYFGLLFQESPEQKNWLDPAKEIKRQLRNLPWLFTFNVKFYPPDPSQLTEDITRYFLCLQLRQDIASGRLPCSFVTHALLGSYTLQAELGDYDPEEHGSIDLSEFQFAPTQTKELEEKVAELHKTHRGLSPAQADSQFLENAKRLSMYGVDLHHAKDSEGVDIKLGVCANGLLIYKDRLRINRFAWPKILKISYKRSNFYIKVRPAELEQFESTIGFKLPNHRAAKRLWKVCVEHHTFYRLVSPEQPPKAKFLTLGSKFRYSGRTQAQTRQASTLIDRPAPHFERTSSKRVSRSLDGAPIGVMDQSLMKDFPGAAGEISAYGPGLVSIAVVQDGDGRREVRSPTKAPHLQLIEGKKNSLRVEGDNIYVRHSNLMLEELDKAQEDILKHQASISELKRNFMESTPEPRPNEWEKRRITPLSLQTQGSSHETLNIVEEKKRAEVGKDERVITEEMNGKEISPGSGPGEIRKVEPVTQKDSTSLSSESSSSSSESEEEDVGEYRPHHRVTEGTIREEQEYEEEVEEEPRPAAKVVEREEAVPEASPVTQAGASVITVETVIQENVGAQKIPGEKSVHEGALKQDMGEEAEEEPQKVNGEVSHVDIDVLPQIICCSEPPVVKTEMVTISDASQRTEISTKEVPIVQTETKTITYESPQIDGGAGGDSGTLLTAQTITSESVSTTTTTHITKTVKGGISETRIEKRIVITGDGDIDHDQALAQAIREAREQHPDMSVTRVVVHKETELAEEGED
UniProt O75179: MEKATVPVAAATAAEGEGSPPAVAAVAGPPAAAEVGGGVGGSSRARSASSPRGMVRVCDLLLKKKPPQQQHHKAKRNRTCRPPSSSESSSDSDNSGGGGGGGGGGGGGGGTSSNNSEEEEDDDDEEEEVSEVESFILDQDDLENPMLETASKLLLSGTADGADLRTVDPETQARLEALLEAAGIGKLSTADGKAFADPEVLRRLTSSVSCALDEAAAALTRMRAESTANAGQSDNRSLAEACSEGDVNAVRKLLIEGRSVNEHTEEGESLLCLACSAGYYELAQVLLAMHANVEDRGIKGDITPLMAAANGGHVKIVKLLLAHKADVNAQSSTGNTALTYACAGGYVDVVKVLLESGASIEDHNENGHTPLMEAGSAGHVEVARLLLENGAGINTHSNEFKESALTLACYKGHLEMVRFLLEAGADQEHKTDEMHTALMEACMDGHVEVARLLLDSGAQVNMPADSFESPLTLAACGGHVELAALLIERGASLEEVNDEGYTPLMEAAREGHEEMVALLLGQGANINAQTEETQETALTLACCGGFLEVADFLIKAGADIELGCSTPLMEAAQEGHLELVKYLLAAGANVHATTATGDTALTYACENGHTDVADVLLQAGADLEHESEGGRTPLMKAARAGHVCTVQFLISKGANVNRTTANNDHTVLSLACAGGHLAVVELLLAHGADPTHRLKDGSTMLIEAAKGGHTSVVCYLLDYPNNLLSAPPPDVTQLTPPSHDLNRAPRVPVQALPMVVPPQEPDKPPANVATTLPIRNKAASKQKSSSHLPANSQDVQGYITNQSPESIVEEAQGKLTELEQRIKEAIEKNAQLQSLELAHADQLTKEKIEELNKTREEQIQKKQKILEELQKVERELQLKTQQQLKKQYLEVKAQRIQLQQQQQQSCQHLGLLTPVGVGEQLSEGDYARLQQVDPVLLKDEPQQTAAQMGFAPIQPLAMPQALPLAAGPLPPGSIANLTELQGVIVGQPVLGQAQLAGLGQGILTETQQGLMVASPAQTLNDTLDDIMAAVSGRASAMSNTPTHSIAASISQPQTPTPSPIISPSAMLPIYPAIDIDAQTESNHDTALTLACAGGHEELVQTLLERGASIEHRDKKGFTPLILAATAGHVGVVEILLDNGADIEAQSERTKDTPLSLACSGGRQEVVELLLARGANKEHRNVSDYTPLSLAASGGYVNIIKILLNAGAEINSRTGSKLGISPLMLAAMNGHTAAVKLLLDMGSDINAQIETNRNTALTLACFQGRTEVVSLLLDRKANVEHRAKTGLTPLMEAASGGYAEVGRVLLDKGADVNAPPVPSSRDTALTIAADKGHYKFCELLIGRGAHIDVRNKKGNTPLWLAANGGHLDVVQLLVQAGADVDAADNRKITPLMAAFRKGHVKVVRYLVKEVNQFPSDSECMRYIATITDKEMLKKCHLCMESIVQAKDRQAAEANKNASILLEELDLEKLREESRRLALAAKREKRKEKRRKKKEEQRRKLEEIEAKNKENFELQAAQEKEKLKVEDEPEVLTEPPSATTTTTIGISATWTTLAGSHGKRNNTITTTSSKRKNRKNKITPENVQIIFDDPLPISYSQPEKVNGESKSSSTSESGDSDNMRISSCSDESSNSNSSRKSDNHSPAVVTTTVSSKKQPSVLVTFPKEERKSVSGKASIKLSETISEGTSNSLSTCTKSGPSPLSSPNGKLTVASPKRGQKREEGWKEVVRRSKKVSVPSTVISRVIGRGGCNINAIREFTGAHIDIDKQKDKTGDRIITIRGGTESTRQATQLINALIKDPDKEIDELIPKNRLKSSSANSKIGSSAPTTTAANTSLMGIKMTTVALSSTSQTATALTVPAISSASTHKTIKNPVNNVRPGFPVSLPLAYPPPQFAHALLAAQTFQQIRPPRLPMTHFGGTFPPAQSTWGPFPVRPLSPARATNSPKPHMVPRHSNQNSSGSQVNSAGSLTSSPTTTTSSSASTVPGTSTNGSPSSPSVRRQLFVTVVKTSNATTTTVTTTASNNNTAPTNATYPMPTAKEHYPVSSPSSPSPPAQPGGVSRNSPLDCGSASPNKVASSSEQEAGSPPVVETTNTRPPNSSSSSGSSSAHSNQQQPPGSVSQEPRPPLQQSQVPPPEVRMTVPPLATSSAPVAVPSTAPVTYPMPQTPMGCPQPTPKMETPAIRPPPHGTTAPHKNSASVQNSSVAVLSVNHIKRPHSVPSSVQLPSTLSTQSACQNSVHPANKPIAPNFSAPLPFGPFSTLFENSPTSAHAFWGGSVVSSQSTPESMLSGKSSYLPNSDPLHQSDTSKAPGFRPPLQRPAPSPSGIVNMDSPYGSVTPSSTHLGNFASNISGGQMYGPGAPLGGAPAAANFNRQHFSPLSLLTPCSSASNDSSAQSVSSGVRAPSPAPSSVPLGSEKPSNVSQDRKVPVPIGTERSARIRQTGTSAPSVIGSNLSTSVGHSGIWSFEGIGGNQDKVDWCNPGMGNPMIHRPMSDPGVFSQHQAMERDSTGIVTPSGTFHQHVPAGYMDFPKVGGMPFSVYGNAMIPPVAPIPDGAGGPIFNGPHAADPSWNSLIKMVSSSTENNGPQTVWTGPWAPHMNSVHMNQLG
UniProt O75153: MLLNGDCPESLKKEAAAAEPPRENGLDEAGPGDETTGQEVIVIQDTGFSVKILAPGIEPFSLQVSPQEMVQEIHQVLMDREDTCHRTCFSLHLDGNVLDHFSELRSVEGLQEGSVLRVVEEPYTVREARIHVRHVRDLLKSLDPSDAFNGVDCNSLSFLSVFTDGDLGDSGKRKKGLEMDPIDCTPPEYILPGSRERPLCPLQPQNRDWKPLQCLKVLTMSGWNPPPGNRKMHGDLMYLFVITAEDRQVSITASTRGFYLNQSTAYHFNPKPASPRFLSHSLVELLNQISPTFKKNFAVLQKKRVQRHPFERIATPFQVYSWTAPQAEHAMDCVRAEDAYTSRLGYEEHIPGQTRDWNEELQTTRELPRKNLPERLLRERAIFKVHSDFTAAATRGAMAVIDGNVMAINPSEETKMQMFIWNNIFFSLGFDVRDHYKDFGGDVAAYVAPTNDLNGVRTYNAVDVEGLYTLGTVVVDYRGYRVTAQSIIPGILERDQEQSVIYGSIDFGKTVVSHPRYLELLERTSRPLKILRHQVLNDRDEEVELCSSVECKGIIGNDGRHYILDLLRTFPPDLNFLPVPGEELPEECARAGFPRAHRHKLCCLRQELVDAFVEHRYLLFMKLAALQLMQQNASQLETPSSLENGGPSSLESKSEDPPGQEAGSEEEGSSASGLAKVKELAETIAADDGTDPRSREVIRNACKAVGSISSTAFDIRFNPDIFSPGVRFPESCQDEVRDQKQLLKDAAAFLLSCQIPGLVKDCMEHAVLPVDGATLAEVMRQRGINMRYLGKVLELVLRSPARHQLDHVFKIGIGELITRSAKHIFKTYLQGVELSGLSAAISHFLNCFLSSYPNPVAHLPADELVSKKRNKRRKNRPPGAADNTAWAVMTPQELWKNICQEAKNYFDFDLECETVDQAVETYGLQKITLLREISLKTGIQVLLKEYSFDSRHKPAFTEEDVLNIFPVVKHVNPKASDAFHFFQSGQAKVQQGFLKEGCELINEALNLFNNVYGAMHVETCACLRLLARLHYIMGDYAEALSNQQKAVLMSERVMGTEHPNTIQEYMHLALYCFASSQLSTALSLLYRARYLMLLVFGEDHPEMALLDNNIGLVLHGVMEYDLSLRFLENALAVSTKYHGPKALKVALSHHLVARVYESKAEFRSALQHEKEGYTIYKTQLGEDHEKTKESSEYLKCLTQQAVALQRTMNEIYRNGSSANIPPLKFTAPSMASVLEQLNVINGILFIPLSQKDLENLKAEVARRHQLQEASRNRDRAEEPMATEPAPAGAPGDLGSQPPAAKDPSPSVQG
UniProt O60502: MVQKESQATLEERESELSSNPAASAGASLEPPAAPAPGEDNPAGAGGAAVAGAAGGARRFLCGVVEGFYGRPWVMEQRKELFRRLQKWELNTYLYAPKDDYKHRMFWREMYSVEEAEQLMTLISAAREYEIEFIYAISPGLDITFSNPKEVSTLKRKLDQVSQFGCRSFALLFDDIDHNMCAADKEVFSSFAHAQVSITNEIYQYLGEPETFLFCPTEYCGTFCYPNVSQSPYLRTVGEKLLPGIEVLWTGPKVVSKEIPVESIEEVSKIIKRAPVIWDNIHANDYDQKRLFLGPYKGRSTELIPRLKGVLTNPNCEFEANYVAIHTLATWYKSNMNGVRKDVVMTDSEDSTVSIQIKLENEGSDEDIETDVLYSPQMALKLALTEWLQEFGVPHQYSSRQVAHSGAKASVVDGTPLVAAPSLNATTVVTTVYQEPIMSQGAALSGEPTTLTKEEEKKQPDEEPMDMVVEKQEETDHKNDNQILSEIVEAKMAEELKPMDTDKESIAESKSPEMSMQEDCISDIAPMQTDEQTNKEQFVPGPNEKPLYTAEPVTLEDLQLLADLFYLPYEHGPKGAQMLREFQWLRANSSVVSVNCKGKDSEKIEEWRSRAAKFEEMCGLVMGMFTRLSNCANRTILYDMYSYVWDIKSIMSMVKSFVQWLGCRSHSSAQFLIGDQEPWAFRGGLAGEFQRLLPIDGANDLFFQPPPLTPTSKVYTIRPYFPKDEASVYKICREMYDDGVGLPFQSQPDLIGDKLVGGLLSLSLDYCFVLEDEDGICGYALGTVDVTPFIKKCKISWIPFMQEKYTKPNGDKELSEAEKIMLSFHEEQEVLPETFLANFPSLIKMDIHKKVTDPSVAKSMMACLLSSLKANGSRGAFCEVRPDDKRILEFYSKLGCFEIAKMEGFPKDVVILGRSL

Only a part is listed here, and it is no random draw. This is a noisy data set.

HNRNPR C99 (UniProt O43390): the “log2 ratio of iodoacetamide-alkyne labeling” value (from here on “log2 ratio”) is inactive: 0.182.
In the case of ATP6V1G1 C104 (UniProt O75348), the “log2 ratio” value is inactive: 0.129.
On to ZNF292 C1564 (UniProt O60281), for which the “log2 ratio” value is inactive: 0.202.
With PRC1 C322 (UniProt O43663) the figure was inactive: -0.179.
In the case of GLRX3 C46 (UniProt O76003), the “log2 ratio” value was inactive: -0.415.
As for SNX3 C140 (UniProt O60493), the “log2 ratio” value is inactive: 0.184.
With SRGAP2 C98 (UniProt O75044), the “log2 ratio” value is inactive: 0.142.
With PSMD10 C4 (UniProt O75832), the “log2 ratio” value is inactive: -0.142.
On to ATP6V1G1 C69 (UniProt O75348), for which the “log2 ratio” value was inactive: 0.299.
Turning to UniProt O75521_C312, the “log2 ratio” value was inactive: 0.24.
Consider DCTN3 C140 (UniProt O75935), for which the “log2 ratio” value was inactive: 0.0548.
ERAL1 C348 (UniProt O75616): the “log2 ratio” value is inactive: 0.162.
Consider LYPLA1 C169 (UniProt O75608), for which the “log2 ratio” value was inactive: 0.00126.
With SPAG9 C443 (UniProt O60271) the figure was inactive: 0.216.
Consider RRP9 C399 (UniProt O43818), for which the “log2 ratio” value was inactive: -0.0182.
As for WDHD1 C304 (UniProt O75717), the figure is inactive: 0.172; as for CPNE3 C5 (UniProt O75131), inactive: 0.193.
As for SF3B1 C1250 (UniProt O75533), the “log2 ratio” value was inactive: -0.144.
As for ZC3H11A C636 (UniProt O75152), the figure is inactive: 0.471.
Take ZW10 C568 (UniProt O43264): the “log2 ratio” value is inactive: 0.228.
As for ROCK2 C804 (UniProt O75116), the “log2 ratio” value was inactive: 0.271.
As for ERAL1 C278 (UniProt O75616), the figure is inactive: -0.0121; as for VPS4B C240 (UniProt O75351), inactive: -0.00995; as for RECQL5 C457 (UniProt O94762), inactive: 0.221.
With RIPK2 C7 (UniProt O43353) the figure was inactive: 0.181; with SMNDC1 C214 (UniProt O75940), inactive: 0.327; with EPB41L2 C232 (UniProt O43491), inactive: 0.26.
With EIF5B C720 (UniProt O60841), the “log2 ratio” value is inactive: -0.116.
CSDE1 C680 (UniProt O75534): the “log2 ratio” value was inactive: 0.0443.
As for URB1 C1163 (UniProt O60287), the “log2 ratio” value was inactive: -0.242.
With NUP155 C974 (UniProt O75694), the “log2 ratio” value was inactive: 0.422.
On to TOM1 C37 (UniProt O60784), for which the “log2 ratio” value is inactive: 0.19.
As for ANKRD17 C1622 (UniProt O75179), the “log2 ratio” value is inactive: 0.3.
Regarding AQR C28 (UniProt O60306), the “log2 ratio” value is inactive: -0.00957.
Take PAPSS1 C360 (UniProt O43252): the “log2 ratio” value is inactive: 0.148.
In the case of UniProt O75153_C732, the “log2 ratio” value is inactive: 0.245.
For UniProt O60502_C896, the “log2 ratio” value is inactive: 0.245.

The values above are taken from the supplement of paper PMC11006884.
